The target in the experiment is AP-SpyTag002-MBP. Briefly: reaction rate by SDS-PAGE with Coomassie staining (FIG. 16).

These results are taken from US20220119459A1 (OXFORD UNIVERSITY INNOVATION, published 2022).

These are yes or no findings as the source states them, for the method shown. Some binding calls cover weakened binding; strength is not graded here.

B1: SpyCatcher variant of SEQ ID NO: 2 (SEQ ID NO: 47 with threonine at position 5) (designed binder)
chain: GAMVTTLSGLSGEQGPSGDMTTEEDSATHIKFSKRDEDGRELAGATMELRDSSGKTISTWISDGHVKDFYLYPGKYTFVETAAPDGYEVATPITFTVNEDGQVTVNGEATKGDAHT
Take B1: the binding result was “binds”.
